# PubChem BioAssay AID1259308 | NCATS – 2017
# Assay: 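Knock-downs that increase output of a recombinant reporter protein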 (primary screen)
# Cells: human HEK293 embryonic kidney cells stably expressing firefly luciferase (HEK-CMV-Luc2-Hygro)
# Reagents: single siRNA against human genes, 0.8 pmol siRNA per well
# Time to read-out: 72 h
# Detection: 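Reporter luminescence and viable-cell signal on separate replicate plates, given as percent of non-targeting control and median/MAD z-scores, plus per-cell luciferase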
# Reading the numbers: total luciferase, z-score and total luciferase, % of control: higher = more reporter protein produced
# Hit rule: 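Active when the median/MAD z-score for overall luciferase is greater than 3; a gene was taken forward for validation with new siRNAs if at least two of its three siRNAs passed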
# Calls: active = raised luciferase; inactive = no rise
# Shown is one part, drawn at random, of about 59,000 reagents. Over the whole deposit, about 1,510 (2.6%) are marked active. 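Calls use total luciferase alone and ignore viability, so some active siRNAs may act by altering cell number.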 Unmarked entries are inactive. The numbers tell different reagents against one gene apart. Not all columns of the deposit are shown. No sequences are given here.
target,reagent,"total luciferase, z-score","total luciferase, % of control"
TRIM31 (tripartite motif containing 31),1,1.03,102
TRIM31 (tripartite motif containing 31),2,-1.65,49
TRIM31 (tripartite motif containing 31),3,3.58 (active),153
TMEM132A (transmembrane protein 132A),1,2.22,126
TMEM132A (transmembrane protein 132A),2,-0.181,78.3
TMEM132A (transmembrane protein 132A),3,-0.512,71.7
LRRC8E (leucine rich repeat containing 8 VRAC subunit E),1,-0.328,75.4
LRRC8E (leucine rich repeat containing 8 VRAC subunit E),2,-2.32,35.8
LRRC8E (leucine rich repeat containing 8 VRAC subunit E),3,-1.55,51.1

The list goes on; the last 3 above are carried over.
target,reagent,"total luciferase, z-score","total luciferase, % of control"
LRRC8E (leucine rich repeat containing 8 VRAC subunit E),1,-0.328,75.4
LRRC8E (leucine rich repeat containing 8 VRAC subunit E),2,-2.32,35.8
LRRC8E (leucine rich repeat containing 8 VRAC subunit E),3,-1.55,51.1
DGLUCY (D-glutamate cyclase),1,0.449,90.8
DGLUCY (D-glutamate cyclase),2,-0.0481,80.9
DGLUCY (D-glutamate cyclase),3,-1.07,60.5
ZNF700 (zinc finger protein 700),1,1.81,118
ZNF700 (zinc finger protein 700),2,1.23,106
ZNF700 (zinc finger protein 700),3,0.587,93.6
MRPL44 (mitochondrial ribosomal protein L44),1,0.337,88.6
MRPL44 (mitochondrial ribosomal protein L44),2,0.235,86.6
MRPL44 (mitochondrial ribosomal protein L44),3,1.84,119
ABHD16B (abhydrolase domain containing 16B),1,-2.38,34.5
ABHD16B (abhydrolase domain containing 16B),2,1.3,108
ABHD16B (abhydrolase domain containing 16B),3,0.123,84.3
LHPP,1,-0.51,71.7
LHPP,2,-0.64,69.2
LHPP,3,-0.0625,80.6
